# From the supplement of paper PMC10849652
# Sequences of proteins named here, by UniProt entry; tags and fusion partners are left off. A change or cut given only in a name is not applied to a line headed by its entry.
# UniProt Q96IV6: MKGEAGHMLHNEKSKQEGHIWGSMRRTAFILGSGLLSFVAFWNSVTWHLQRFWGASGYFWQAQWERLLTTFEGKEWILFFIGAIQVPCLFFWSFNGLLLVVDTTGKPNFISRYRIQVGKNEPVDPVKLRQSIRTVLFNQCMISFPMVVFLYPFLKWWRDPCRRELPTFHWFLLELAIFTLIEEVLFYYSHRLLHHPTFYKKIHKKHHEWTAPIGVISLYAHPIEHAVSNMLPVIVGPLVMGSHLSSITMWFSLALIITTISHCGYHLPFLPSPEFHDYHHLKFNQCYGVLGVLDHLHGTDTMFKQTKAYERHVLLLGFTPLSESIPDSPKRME
# UniProt Q17RN3: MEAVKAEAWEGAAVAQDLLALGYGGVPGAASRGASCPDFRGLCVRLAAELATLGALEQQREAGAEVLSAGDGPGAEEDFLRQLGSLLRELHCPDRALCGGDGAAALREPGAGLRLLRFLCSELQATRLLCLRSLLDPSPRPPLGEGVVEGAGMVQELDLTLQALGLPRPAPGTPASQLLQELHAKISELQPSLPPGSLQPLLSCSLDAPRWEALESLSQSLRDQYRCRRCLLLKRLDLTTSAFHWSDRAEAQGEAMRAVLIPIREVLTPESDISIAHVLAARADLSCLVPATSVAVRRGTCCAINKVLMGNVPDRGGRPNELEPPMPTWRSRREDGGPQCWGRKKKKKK
# UniProt Q9Y324: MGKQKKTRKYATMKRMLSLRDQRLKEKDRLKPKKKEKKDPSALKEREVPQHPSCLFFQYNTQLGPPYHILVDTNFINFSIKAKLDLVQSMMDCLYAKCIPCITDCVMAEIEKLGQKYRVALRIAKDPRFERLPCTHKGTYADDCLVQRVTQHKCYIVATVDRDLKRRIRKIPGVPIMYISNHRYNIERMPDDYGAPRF
# UniProt P16591: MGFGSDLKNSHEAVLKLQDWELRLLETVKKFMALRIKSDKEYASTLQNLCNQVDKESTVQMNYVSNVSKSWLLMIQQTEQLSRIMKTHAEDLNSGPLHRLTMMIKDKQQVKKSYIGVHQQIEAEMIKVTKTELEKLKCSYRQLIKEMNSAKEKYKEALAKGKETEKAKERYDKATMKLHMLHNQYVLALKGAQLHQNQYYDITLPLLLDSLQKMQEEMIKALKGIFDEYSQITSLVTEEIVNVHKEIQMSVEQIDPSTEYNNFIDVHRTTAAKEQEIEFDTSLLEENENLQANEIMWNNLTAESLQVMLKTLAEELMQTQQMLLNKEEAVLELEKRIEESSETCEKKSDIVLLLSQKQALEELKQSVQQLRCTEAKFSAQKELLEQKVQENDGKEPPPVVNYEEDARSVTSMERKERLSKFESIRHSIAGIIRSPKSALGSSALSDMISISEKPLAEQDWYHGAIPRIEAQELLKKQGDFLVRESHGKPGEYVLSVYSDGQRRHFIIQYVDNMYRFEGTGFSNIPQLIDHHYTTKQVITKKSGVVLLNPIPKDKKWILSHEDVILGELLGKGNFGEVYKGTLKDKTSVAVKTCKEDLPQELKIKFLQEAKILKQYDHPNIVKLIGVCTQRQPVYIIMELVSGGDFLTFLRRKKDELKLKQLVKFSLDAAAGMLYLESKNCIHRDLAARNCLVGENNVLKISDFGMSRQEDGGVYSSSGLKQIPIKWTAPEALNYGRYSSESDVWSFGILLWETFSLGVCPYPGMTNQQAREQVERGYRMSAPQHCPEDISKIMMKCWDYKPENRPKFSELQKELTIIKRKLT
# UniProt Q96GI7: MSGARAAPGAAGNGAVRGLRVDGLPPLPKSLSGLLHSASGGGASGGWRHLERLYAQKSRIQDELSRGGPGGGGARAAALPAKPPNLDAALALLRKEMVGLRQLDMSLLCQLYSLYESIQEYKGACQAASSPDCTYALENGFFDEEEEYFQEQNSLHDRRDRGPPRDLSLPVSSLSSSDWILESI
# UniProt Q9UKA2: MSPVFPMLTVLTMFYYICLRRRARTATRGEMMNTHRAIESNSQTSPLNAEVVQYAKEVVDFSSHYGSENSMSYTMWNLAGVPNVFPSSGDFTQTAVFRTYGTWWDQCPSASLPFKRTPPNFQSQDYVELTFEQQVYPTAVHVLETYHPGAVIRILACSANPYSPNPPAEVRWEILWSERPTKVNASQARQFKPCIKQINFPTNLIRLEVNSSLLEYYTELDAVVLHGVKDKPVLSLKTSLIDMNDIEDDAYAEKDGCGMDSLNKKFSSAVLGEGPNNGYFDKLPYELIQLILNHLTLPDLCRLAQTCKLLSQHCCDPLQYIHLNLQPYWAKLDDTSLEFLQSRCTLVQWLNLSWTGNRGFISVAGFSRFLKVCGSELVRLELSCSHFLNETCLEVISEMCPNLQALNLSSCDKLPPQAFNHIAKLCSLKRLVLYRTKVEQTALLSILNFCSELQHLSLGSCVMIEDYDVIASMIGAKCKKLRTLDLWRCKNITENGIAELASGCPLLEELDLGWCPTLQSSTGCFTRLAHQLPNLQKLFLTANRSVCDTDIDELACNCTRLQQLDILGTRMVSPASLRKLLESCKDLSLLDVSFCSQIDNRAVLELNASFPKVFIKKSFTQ
# UniProt Q96CD0: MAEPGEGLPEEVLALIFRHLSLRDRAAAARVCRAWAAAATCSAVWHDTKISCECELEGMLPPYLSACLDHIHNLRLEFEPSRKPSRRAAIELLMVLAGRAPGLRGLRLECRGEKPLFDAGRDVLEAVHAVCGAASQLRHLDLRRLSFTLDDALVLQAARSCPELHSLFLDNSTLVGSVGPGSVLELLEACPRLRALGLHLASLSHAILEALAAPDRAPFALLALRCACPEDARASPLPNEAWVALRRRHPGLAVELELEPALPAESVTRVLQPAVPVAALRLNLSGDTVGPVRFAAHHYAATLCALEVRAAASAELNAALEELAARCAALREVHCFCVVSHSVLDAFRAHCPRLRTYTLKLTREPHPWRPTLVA
# UniProt Q9NW38: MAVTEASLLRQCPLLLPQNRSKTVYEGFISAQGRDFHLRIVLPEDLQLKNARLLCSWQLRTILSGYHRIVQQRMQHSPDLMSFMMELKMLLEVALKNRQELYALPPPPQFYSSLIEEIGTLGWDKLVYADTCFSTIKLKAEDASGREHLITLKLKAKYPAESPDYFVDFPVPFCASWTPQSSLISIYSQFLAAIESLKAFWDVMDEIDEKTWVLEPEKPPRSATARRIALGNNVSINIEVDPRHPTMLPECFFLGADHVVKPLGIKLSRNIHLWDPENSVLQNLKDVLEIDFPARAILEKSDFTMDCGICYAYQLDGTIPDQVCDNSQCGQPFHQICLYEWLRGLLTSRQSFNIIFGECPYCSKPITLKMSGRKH
# UniProt Q9NYF3: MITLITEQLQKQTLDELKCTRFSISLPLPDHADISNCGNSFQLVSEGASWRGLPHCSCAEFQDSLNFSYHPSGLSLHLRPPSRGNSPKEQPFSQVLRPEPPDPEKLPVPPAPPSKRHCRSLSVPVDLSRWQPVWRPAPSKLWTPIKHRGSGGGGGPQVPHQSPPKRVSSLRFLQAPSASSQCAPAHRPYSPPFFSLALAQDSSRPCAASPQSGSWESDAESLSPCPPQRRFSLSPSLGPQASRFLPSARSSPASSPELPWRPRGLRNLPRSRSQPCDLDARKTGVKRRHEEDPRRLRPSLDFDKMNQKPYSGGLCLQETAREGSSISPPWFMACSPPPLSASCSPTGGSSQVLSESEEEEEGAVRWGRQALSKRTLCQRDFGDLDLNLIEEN
# UniProt Q7Z6M2: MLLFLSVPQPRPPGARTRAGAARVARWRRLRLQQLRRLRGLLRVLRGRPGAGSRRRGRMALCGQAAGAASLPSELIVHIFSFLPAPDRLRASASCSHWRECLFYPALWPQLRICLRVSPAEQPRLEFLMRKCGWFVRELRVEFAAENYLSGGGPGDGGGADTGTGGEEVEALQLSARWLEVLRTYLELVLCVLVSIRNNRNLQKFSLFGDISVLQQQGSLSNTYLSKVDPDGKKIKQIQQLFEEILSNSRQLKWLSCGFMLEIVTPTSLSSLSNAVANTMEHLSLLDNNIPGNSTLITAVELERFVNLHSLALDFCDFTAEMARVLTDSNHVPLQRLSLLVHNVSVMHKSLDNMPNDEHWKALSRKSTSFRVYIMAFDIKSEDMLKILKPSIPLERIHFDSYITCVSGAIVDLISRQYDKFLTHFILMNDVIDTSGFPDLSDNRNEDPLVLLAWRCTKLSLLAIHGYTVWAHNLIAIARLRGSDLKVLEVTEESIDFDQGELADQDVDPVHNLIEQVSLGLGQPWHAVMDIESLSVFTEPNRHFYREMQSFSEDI
# UniProt Q14314: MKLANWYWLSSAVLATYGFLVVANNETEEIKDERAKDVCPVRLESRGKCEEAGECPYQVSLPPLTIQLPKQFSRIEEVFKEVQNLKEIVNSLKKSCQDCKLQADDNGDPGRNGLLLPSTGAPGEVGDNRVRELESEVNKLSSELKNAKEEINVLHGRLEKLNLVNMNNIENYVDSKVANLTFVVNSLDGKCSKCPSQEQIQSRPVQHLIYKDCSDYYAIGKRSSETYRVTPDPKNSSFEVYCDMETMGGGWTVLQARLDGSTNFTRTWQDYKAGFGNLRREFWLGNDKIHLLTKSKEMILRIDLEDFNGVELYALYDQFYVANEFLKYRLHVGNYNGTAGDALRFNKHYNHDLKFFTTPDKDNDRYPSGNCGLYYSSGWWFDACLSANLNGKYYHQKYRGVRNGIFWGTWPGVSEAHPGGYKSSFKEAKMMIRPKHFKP
# UniProt Q96AC1: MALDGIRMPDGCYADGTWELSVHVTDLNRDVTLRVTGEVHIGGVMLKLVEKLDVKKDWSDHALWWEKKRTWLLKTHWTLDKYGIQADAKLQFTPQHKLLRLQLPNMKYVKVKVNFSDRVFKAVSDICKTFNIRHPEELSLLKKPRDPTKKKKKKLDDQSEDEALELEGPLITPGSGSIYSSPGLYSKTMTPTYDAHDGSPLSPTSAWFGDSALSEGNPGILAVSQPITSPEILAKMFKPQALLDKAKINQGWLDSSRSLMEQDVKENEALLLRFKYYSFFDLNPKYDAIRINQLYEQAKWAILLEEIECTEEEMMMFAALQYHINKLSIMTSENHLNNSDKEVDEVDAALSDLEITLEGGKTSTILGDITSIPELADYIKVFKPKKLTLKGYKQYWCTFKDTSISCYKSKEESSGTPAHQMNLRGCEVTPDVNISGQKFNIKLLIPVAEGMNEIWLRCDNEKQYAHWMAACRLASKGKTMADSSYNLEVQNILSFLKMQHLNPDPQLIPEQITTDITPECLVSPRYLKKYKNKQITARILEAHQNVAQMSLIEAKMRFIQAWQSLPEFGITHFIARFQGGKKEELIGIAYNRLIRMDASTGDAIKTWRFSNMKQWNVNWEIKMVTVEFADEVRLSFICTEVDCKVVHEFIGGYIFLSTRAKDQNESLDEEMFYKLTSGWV
# UniProt Q9UK97: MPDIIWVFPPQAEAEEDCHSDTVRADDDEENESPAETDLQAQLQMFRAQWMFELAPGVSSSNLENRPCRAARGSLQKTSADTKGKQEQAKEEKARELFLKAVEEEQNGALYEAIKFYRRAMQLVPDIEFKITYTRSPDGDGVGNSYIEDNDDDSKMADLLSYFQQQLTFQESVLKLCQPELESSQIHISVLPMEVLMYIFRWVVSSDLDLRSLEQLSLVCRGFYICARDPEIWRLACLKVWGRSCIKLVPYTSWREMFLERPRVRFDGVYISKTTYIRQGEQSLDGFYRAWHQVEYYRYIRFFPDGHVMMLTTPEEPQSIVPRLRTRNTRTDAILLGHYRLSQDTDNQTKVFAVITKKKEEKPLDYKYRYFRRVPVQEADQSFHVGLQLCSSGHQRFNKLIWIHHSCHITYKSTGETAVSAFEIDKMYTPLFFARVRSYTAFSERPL
# The list shows a part of the results. Residues, ends and D or L forms follow the SMILES beside them. *: point of attachment. Cbz = O=C(OCc1ccccc1)*
# Legend:
# Assay in all cases: log2 fold change, soluble protein after heating vs DMSO (PISA); higher = thermal stabilisation; K562 cells, 10 uM, 30 min; active = over 0.2 and 3.5 SD of the protein, either way, in both replicates (recomputed)
# [1] = compound: C1=CC2=NC=CN=C2C=C1/C=C/3\C(=O)NC(=O)S3
# Summary of the method: (§1)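 Quantification of soluble protein used TMTpro 16plex LC-MS/MS, with channel sums equalised. Samples were the supernatant after 21,000xg for 90 min of pooled aliquots from K562 cells (2×10^6 cells/mL) treated with 10 μM compound for 30 min, heated for 3 min over 48°C-58°C, and extracted in PBS with 0.5% NP-40 at 4°C. Values, from duplicates, describe thermal stability against control samples on a log2 fold-change scale.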
# [2] = compound: C1COCCN1CCN2C3=CC=CC=C3N=C2NC(=O)C4=CC(=CC=C4)[N+](=O)[O-] [IRAK-1-4 Inhibitor I]
# Summary of the method: as §1
# [3] = compound: C=CC(=O)N1CCC[C@@H](n2nc(-c3ccc(Oc4ccccc4)cc3)c3c(N)ncnc32)C1 [ibrutinib]
# Summary of the method: as §1
# [4] = compound: CC(C)N(C[C@H]1O[C@@H](n2cnc3c(N)ncnc32)[C@H](O)[C@@H]1O)[C@H]1C[C@@H](CCc2nc3cc(C(C)(C)C)ccc3[nH]2)C1 [pinometostat]
# Summary of the method: as §1
# [5] = compound: CC1=C(C(CC(=O)N1)C2=CC=C(C=C2)C(F)(F)F)C(=O)NC3=C(C=C4C(=C3)C=NN4)F
# Summary of the method: as §1
# [6] = compound: C/C(=N\NC(=O)C1=CC(=CC=C1)S(=O)(=O)N2CCOCC2)/C3=C(C=CC(=C3)Cl)O
# Summary of the method: as §1
# [7] = compound: C1=CC2=C(C=CC(=C2)/C=C\3/C(=O)NC(=NCC4=CC=CS4)S3)N=C1
# Summary of the method: as §1
# [8] = compound: C1=CC=C2C(=C1)C3=NNC4=CC=CC(=C43)C2=O
# Summary of the method: as §1
# [9] = compound: CC(=O)c1cnc2ccc(-c3cc(Cl)c(O)c(Cl)c3)nc2c1N[C@H]1CC[C@H](CN(C)C)CC1
# Summary of the method: as §1
# [10] = compound: C1=CC(=C(C=C1Cl)C2=NC3=NC=CN=C3C(=N2)NC4=CC=NC=C4)F
# Summary of the method: as §1
# [11] = compound: C1=CC=C(C=C1)C2=NC(=C(N2)C3=CC=NC=C3)C4=CC(=C(C=C4)Cl)O
# Summary of the method: as §1
# [12] = compound: C1CCN(C1)C(=O)NC2=CC=CC(=C2)NC3=NC=C(C(=N3)NCCC4=CN=CN4)Br
# Summary of the method: as §1
# [13] = compound: C1CN(CCC1(CC2=CC=C(C=C2)Cl)N)C3=NC=NC4=C3C=CN4
# Summary of the method: as §1
# [14] = compound: CC(C)(C)Cn1c(N)nc2ccc(-c3[nH]c(C(C)(C)C)nc3-c3ccc(F)cc3)nc21 [ralimetinib]
# Summary of the method: as §1
# [15] = compound: CC(C)(O)CC(=O)NCCn1ccc2ncnc(Nc3ccc(Oc4cccc(C(F)(F)F)c4)c(Cl)c3)c21
# Summary of the method: as §1
# [16] = compound: CC(C)C[C@@H](C=O)NC(=O)[C@H](CC(C)C)NC(=O)[C@H](CC(C)C)NC(=O)OCc1ccccc1
# Summary of the method: as §1
# [17] = compound: CC1=C(C2=C(C=C1)C(=O)C3=CC=CC=C3N2CCCN)C
# Summary of the method: as §1
# [18] = compound: C#Cc1cccc(Nc2ncnc3cc(OCCOC)c(OCCOC)cc23)c1 [erlotinib]
# Summary of the method: as §1
# [19] = compound: C1=CC(=CC=C1C2=NC3=C(N2)C=C(C=C3)C(=O)N)OC4=CC=C(C=C4)Cl
# Summary of the method: as §1
# [20] = compound: CC(C)C1=C2N=C(C=C(N2N=C1)NCC3=CC=CC=C3)NCCCCCCN
# Summary of the method: as §1
target,measurement,setting,value
FAXDC2 (UniProt Q96IV6),log2 fold change,[1],inactive: 0.064
same,log2 fold change,[2],inactive: -0.005
same,log2 fold change,[3],inactive: -0.008
same,log2 fold change,[4],inactive: -0.07
same,log2 fold change,[5],inactive: 0.093
FAM98C (UniProt Q17RN3),log2 fold change,[6],inactive: -0.078
same,log2 fold change,[7],inactive: -0.15
same,log2 fold change,[8],inactive: 0.103
same,log2 fold change,[9],inactive: 0.194
FCF1 (UniProt Q9Y324),log2 fold change,[10],inactive: -0.392
same,log2 fold change,[11],inactive: -0.075
same,log2 fold change,[12],inactive: 0.034
same,log2 fold change,[13],inactive: -0.138
same,log2 fold change,[2],inactive: -0.083
same,log2 fold change,[14],inactive: 0.223
same,log2 fold change,[15],inactive: 0.032
same,log2 fold change,[16],inactive: 0.074
same,log2 fold change,[4],inactive: 0.334
same,log2 fold change,[17],active: -1.04
FER (UniProt P16591),log2 fold change,[18],inactive: 0.925
same,log2 fold change,[6],inactive: 0.301
same,log2 fold change,[19],inactive: -0.657
same,log2 fold change,[7],inactive: -0.138
same,log2 fold change,[8],inactive: -0.982
same,log2 fold change,[9],inactive: 0.128
same,log2 fold change,[20],inactive: 0.109
FAM89A (UniProt Q96GI7),log2 fold change,[18],inactive: -0.133
same,log2 fold change,[19],inactive: 0.024
same,log2 fold change,[1],inactive: -0.018
same,log2 fold change,[11],inactive: 0.015
same,log2 fold change,[2],inactive: -0.027
same,log2 fold change,[3],inactive: -0.233
same,log2 fold change,[14],inactive: 0.101
same,log2 fold change,[20],inactive: -0.028
same,log2 fold change,[16],inactive: 0.02
same,log2 fold change,[4],inactive: -0.024
same,log2 fold change,[5],inactive: 0.045
FMR1 (UniProt Q06787),log2 fold change,[18],inactive: -0.301
same,log2 fold change,[19],inactive: 0.154
same,log2 fold change,[11],inactive: -0.121
same,log2 fold change,[2],inactive: 0.091
same,log2 fold change,[14],inactive: 0.036
same,log2 fold change,[20],inactive: 0.149
same,log2 fold change,[16],inactive: 0.056
same,log2 fold change,[4],inactive: 0.153
FBXL4 (UniProt Q9UKA2),log2 fold change,[10],inactive: -0.513
same,log2 fold change,[15],inactive: -0.107
FBXL8 (UniProt Q96CD0),log2 fold change,[18],inactive: -0.049
same,log2 fold change,[10],inactive: 0.335
same,log2 fold change,[19],inactive: -0.107
same,log2 fold change,[1],inactive: -0.11
same,log2 fold change,[12],inactive: -0.031
same,log2 fold change,[13],inactive: -0.051
same,log2 fold change,[3],inactive: 0.133
same,log2 fold change,[15],inactive: 0.1
same,log2 fold change,[20],inactive: 0.05
same,log2 fold change,[17],inactive: 0.002
FANCL isoform 2 (UniProt Q9NW38),log2 fold change,[6],inactive: 0.077
same,log2 fold change,[7],inactive: 0.216
same,log2 fold change,[8],inactive: -0.089
same,log2 fold change,[9],inactive: -0.284
FAM53C (UniProt Q9NYF3),log2 fold change,[11],inactive: -0.018
same,log2 fold change,[12],inactive: -0.084
same,log2 fold change,[13],inactive: -0.274
same,log2 fold change,[14],inactive: 0.083
same,log2 fold change,[16],inactive: 0.136
same,log2 fold change,[5],inactive: -0.113
same,log2 fold change,[17],inactive: -0.207
FBXO33 (UniProt Q7Z6M2),log2 fold change,[10],inactive: 0.048
same,log2 fold change,[1],inactive: 0.051
same,log2 fold change,[3],inactive: -0.184
same,log2 fold change,[15],inactive: -0.048
FGL2 (UniProt Q14314),log2 fold change,[18],inactive: -0.051
same,log2 fold change,[19],inactive: -0.08
same,log2 fold change,[20],inactive: 0.113
FERMT2 isoform 3 (UniProt Q96AC1),log2 fold change,[18],inactive: -0.215
same,log2 fold change,[10],inactive: 0.176
same,log2 fold change,[19],inactive: 0.052
same,log2 fold change,[1],inactive: 0.051
same,log2 fold change,[11],inactive: 0.008
same,log2 fold change,[12],inactive: -0.158
same,log2 fold change,[13],inactive: 0.061
same,log2 fold change,[2],inactive: 0.36
same,log2 fold change,[3],inactive: 0.028
same,log2 fold change,[14],inactive: -0.06
same,log2 fold change,[15],inactive: 0.075
same,log2 fold change,[20],inactive: -0.036
same,log2 fold change,[16],inactive: -0.002
same,log2 fold change,[4],inactive: 0.07
same,log2 fold change,[5],inactive: 0.061
same,log2 fold change,[17],inactive: 0.11
FBXO9 (UniProt Q9UK97),log2 fold change,[18],inactive: -0.017
same,log2 fold change,[19],inactive: 0.137
same,log2 fold change,[1],inactive: -0.022
same,log2 fold change,[11],inactive: 0.03
same,log2 fold change,[12],inactive: -0.098
same,log2 fold change,[13],inactive: -0.037
same,log2 fold change,[2],inactive: -0.034
same,log2 fold change,[3],inactive: -0.119
same,log2 fold change,[14],inactive: 0.137
same,log2 fold change,[20],inactive: -0.101
same,log2 fold change,[16],inactive: 0.088
same,log2 fold change,[4],inactive: 0.038
same,log2 fold change,[17],inactive: 0.137
FAT3 isoform 1 (UniProt Q8TDW7),log2 fold change,[18],inactive: -0.004
same,log2 fold change,[10],inactive: -0.039
same,log2 fold change,[19],inactive: -0.026
same,log2 fold change,[1],inactive: -0.104
same,log2 fold change,[11],inactive: 0.03
same,log2 fold change,[2],inactive: -0.275
same,log2 fold change,[3],inactive: 0.495
same,log2 fold change,[14],inactive: 0.22
same,log2 fold change,[15],inactive: 0.057
same,log2 fold change,[20],inactive: 0.18
same,log2 fold change,[16],inactive: 0.193
same,log2 fold change,[4],inactive: 0.062
same,log2 fold change,[5],inactive: -0.085

# 5 entries from above, tab-delimited:
target	measurement	setting	value
FAM89A (UniProt Q96GI7)	log2 fold change	[1]	inactive: -0.018
same	log2 fold change	[11]	inactive: 0.015
same	log2 fold change	[2]	inactive: -0.027
same	log2 fold change	[3]	inactive: -0.233
same	log2 fold change	[14]	inactive: 0.101
